Among the data in article PMC11229306 are binding values, retold here.

These are yes or no findings as the source states them, for the method shown. In cells and extracts the contact can be indirect. Some binding calls cover weakened binding; strength is not graded here. For part of these data: Tags and fused reporters may be left off the sequences shown.

Assay [1] concerns the target T1, Flag-USP8 (full-length) (UniProt P40818).
T1 sequence: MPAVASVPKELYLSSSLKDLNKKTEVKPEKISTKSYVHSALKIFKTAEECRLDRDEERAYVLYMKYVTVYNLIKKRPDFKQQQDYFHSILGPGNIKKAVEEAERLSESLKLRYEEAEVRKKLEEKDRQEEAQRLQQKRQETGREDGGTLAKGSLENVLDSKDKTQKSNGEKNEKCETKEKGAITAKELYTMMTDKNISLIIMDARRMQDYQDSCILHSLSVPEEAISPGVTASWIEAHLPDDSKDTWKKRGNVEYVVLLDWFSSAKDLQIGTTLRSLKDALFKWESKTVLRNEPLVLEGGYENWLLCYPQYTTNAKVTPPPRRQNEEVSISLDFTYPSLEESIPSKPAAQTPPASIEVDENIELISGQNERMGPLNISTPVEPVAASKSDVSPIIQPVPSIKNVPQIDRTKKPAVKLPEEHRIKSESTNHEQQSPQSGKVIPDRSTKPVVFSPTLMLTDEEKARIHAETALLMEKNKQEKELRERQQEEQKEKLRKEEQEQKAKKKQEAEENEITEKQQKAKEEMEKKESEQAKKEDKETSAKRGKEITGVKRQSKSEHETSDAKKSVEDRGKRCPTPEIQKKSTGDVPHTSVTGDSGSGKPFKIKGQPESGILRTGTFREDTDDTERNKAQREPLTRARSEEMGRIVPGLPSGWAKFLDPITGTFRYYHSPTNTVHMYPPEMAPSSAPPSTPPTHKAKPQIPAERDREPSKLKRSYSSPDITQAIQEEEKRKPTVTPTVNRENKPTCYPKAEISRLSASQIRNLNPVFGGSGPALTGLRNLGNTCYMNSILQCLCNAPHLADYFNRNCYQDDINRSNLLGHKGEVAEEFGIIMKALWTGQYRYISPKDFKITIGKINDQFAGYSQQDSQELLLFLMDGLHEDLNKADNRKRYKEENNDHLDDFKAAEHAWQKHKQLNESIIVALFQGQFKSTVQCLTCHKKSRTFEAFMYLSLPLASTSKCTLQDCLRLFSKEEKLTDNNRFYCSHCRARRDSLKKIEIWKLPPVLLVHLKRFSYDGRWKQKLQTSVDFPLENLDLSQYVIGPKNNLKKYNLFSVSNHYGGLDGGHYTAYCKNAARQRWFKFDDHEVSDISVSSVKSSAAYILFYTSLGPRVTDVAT
Briefly: co-IP; exogenous USP8 and OGT in 293 T (legend: HEK293) cells; which one was precipitated is not told.

Assay [2] deals with T2, Ubiquitin-specific peptidase 8 (USP8), endogenous (human (endogenous in HCCC9810 and RBE)) (UniProt P40818).
T2 sequence: T1 sequence
The assay can be described thus: co-IP; endogenous proteins in HCCC9810 and RBE lysate (IP lysis solution with protease inhibitors), precleared with rabbit IgG 4 h, overnight immunoprecipitation with USP8 or OGT antibody, western blot.

The target of assay [3] is T3, Myc-OGT (full-length) (UniProt O15294).
T3 sequence: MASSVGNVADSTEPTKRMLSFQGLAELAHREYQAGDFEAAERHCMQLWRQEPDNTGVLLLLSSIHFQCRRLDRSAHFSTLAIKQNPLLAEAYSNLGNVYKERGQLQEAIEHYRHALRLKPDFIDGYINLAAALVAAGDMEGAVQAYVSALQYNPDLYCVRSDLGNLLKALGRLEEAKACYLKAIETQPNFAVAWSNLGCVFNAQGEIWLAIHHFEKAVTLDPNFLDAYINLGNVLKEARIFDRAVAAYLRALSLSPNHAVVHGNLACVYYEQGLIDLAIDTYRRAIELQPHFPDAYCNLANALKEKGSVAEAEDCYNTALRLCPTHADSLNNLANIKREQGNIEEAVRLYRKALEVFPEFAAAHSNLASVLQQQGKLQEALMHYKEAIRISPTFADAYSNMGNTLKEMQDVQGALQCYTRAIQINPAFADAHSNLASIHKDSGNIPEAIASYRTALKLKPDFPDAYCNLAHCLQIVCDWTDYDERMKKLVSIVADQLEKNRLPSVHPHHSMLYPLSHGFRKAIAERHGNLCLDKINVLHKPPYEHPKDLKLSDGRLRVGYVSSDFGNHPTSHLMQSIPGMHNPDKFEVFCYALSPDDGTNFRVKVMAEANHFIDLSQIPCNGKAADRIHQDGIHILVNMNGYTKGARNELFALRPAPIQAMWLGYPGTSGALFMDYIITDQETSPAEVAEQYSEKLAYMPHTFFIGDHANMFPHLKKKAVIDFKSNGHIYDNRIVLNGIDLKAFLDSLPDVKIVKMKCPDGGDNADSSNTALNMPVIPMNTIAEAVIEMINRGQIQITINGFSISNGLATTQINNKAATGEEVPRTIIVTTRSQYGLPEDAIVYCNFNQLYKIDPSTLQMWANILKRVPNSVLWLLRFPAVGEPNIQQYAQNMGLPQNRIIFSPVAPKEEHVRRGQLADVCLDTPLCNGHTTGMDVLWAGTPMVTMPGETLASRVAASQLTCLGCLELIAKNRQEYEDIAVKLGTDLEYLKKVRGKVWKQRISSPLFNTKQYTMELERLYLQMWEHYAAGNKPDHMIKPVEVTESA
The assay can be described thus: co-IP; HEK293 cells transfected with Flag-USP8 full-length or deletion mutants and 2 μg Myc-OGT, NP-40 lysis buffer after 24 h, Myc antibody for co-IP, Flag antibody for detection.

B1: Myc-OGT (full-length) (enzyme, UniProt O15294 1-1046)
chain: T3 sequence
On to B1, for which, in assay [1], the binding entry is reported as “binds”.

B2: O-GlcNAc transferase (OGT), endogenous (enzyme, UniProt O15294 1-1046)
chain: T3 sequence
Regarding B2, the binding result in assay [2] was “binds”.

B3: USP8 USP domain (USP8 715-1118), Flag-tagged deletion mutant (domain or fragment, UniProt P40818 715-1118)
chain: RSYSSPDITQAIQEEEKRKPTVTPTVNRENKPTCYPKAEISRLSASQIRNLNPVFGGSGPALTGLRNLGNTCYMNSILQCLCNAPHLADYFNRNCYQDDINRSNLLGHKGEVAEEFGIIMKALWTGQYRYISPKDFKITIGKINDQFAGYSQQDSQELLLFLMDGLHEDLNKADNRKRYKEENNDHLDDFKAAEHAWQKHKQLNESIIVALFQGQFKSTVQCLTCHKKSRTFEAFMYLSLPLASTSKCTLQDCLRLFSKEEKLTDNNRFYCSHCRARRDSLKKIEIWKLPPVLLVHLKRFSYDGRWKQKLQTSVDFPLENLDLSQYVIGPKNNLKKYNLFSVSNHYGGLDGGHYTAYCKNAARQRWFKFDDHEVSDISVSSVKSSAAYILFYTSLGPRVTDVAT
As for B3, in assay [3], the binding result was “binds”.
